PubChem BioAssay AID1439 (NMMLSC, 2008)
About 770 (0.35%) of roughly 220,000 compounds were called active. This list was built around the results that the source calls inconclusive (neither active nor inactive); the mix of calls is not that of the screen. Cut-off read from the data, not from the text of the source: active = binding response below about 49% or above about 150%; inconclusive = no clear call, values can overlap the other calls; inactive = in between.

Amino acid sequences for entries named in this document (tags omitted).
UniProt P09471, whole entry, looked up: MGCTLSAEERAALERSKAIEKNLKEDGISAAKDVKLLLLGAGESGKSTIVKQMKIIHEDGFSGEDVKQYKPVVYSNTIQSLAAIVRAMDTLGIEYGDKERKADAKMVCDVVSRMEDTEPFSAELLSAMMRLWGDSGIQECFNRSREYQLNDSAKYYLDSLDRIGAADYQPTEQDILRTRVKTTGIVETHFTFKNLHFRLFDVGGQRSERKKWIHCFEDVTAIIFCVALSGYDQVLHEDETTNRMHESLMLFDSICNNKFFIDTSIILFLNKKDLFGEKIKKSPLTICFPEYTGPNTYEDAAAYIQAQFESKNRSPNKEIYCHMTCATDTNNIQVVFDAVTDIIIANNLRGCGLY

What follows are molecules tested against Guanine nucleotide-binding protein G(o) subunit alpha (Homo sapiens) (UniProt P09471) (assay: RGS7-Galphao binding modulators, primary screen, biochemical, multiplexed bead flow cytometry (AID 1439;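 note: fluorescent Galphao held in activated GDP-AlF4 state binding bead-coupled RGS7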)). Conditions: at 10 µM, actives lie on both sides.
`O=C(N=c1ccn(-c2nc3ccccc3nc2NS(=O)(=O)c2ccc(Cl)cc2)cc1)c1ccccc1Cl` was tested, and the binding response (% of control) was inconclusive: -193%.
For `O=C(c1ccc(Cl)nc1)N1CCC(Cc2ccccc2)CC1`, the binding response (% of control) was inconclusive: 150%.
`C1=C(CCNCC2CCCCC2)CCCC1` was tested, and the binding response (% of control) was inactive: 98.7%.
With `COc1ccc(NC(=O)CC2C(=O)N(c3ccc(OC)cc3)C(=O)N2Cc2ccc(OC)c(OC)c2)cc1` (configuration not stated) the binding response (% of control) was inconclusive: 122%.
In the case of `CCOC(=O)CSc1nc2ccccc2c(=O)n1CC1CCCO1` (configuration not stated), the binding response (% of control) is reported as inactive: 71.8%.
`O=C(CNC(=O)c1ccccc1)N/N=C/c1cn[nH]c1-c1ccccc1` was tested, and the binding response (% of control) was inactive: 102%.
With `COC(=O)CNC(=O)COC(=O)c1ccc(Cl)nc1` the binding response (% of control) was inconclusive: 99.5%.
For `CC(=O)/C(N=Nc1ccc(C(=O)O)cc1)=C(\C)O`, the binding response (% of control) was inconclusive: 85.3%.
With `COc1cc2c(cc1OC)CN(Cc1cc(=O)n3c(-c4ccccc4)csc3n1)CC2` the binding response (% of control) was inconclusive: 98.4%.
For `CCOC(=O)c1cc(CC)sc1N1C(=O)CC(Sc2ncccc2C(=O)O)C1=O` (configuration not stated), the binding response (% of control) was inconclusive: 90.2%.
In the case of `CC(=O)C1C(c2ccccc2)c2c(noc2C)CC1(C)O` (configuration not stated), the binding response (% of control) is reported as inconclusive: 104%.
In the case of `Cc1c(NC(=O)CN2CCN(c3ccc(O)cc3)CC2)c(=O)n(-c2ccccc2)n1C`, the binding response (% of control) is reported as inconclusive: 104%.
In the case of `O=C1C(NS(=O)(=O)c2cccs2)=C(N2CCN(Cc3ccccc3)CC2)C(=O)c2ccccc21`, the binding response (% of control) is reported as inconclusive: 85.3%.
For `Cc1cc(C)nc(N/N=C/c2cn[nH]c2-c2ccccc2)n1`, the binding response (% of control) was inconclusive: 75.3%.
`CCc1ccc(C(=O)COC(=O)CNC(=O)c2cccs2)cc1` was tested, and the binding response (% of control) was inactive: 139%.
For `CCC1(c2ccc(F)cc2)NC(=O)N(CC(=O)Nc2ccc(S(N)(=O)=O)cc2)C1=O` (configuration not stated), the binding response (% of control) was inconclusive: 125%.
With `CN1c2ccccc2Oc2nnc(Cl)cc21` the binding response (% of control) was inconclusive: 81.6%.
For `Cn1c(=O)c2c(nc(Sc3ncnn3CC(=O)NC3CCCCC3)n2C)n(C)c1=O`, the binding response (% of control) was inconclusive: 106%.
`COc1ccc(OC)c(C(=O)c2ccc(C(=O)N3CCN(Cc4csc(C)n4)CC3)cc2)c1` was tested, and the binding response (% of control) was inconclusive: 89.4%.
For `Nc1n[nH]c(N)c1N=Nc1ccccc1`, the binding response (% of control) was inactive: 99%.
With `COc1ccc(CC2(CO)CCN(S(=O)(=O)c3sccc3C)CC2)cc1` the binding response (% of control) was inactive: 104%.
In the case of `COc1ccc(C2=NN(C(=O)CSc3cn(C)c4ccccc34)C(c3ccc(OC)cc3)C2)cc1` (configuration not stated), the binding response (% of control) is reported as inactive: 95.4%.
In the case of `Cc1ccc(Cn2c(SCC(=O)N/N=C/c3ccccc3OCC(=O)O)nc3ccccc32)cc1`, the binding response (% of control) is reported as inconclusive: 109%.
With `O=C1CN(C(=O)CSc2nncs2)c2ccccc2N1` the binding response (% of control) was inconclusive: 99.6%.
In the case of `COc1ccc(C(=O)/C(C#N)=N/Nc2ccc([N+](=O)[O-])cc2)cc1`, the binding response (% of control) is reported as inconclusive: 135%.
In the case of `C=CCOc1ccc(Cl)cc1CNC1CCCC1`, the binding response (% of control) is reported as inconclusive: 83.1%.
For `COc1cccc(C(=O)C2CCCN(Cc3c(C)n(C)n(-c4ccccc4)c3=O)C2)c1` (configuration not stated), the binding response (% of control) was inconclusive: 69.8%.
With `COCCCNC(=O)c1c(NC(=O)C2COc3ccccc3O2)sc2c1CCCC2` (configuration not stated) the binding response (% of control) was inactive: 100%.
With `COc1ccc(NC(=S)N(CCO)Cc2ccccc2)cc1` the binding response (% of control) was inconclusive: 97.5%.
In the case of `Cc1ccc(OCC(=O)NNC(=O)C(=O)N2CCCC2)c(C)c1`, the binding response (% of control) is reported as inactive: 113%.
For `O=C(O)/C=C/c1cn(-c2ccccc2)nc1-c1cccc([N+](=O)[O-])c1`, the binding response (% of control) was inconclusive: 121%.
`O=C(N/N=C/c1oc(O)c2ccccc12)c1ccccc1O` was tested, and the binding response (% of control) was inconclusive: 111%.
With `CCOc1cc(N2CCOCC2)c(OCC)cc1NC(=O)CN1CCN(Cc2ccc3c(c2)OCO3)CC1` the binding response (% of control) was inconclusive: 155%.
For `O=[N+]([O-])c1ccc(CSc2nnc(Cc3ccccc3)o2)cc1`, the binding response (% of control) was inconclusive: 88.1%.
In the case of `COc1ccc(OCC(=O)N2CCN(S(=O)(=O)c3ccc(Cl)cc3)CC2)cc1`, the binding response (% of control) is reported as inactive: 111%.
`O=C(Nc1ccccn1)C(=O)Nc1ccccn1` was tested, and the binding response (% of control) was inconclusive: 89.3%.
In the case of `CCC(C(=O)N1CCN(c2ccccn2)CC1)n1nc(C)n2c(cc3occc32)c1=O` (configuration not stated), the binding response (% of control) is reported as inactive: 100%.
`O=C(NCC1CCN(S(=O)(=O)c2ccccc2)CC1)Nc1ccc(F)cc1F` was tested, and the binding response (% of control) was inconclusive: -19%.
With `COC(=O)c1ccc(C(=O)NC(=S)Nc2ccc3nc(SC)sc3c2)cc1` the binding response (% of control) was inactive: 102%.
For `CCOC(=O)C1CCCN(CCC(=O)Nc2ccccc2C)C1` (configuration not stated), the binding response (% of control) was inactive: 94.7%.
`CCc1ccccc1NC(=S)N1N=CCC1c1ccccc1` (configuration not stated) was tested, and the binding response (% of control) was inconclusive: 104%.
With `Cc1ccc(S(=O)(=O)NC(=O)Nc2nc(-c3ccc(F)c(F)c3)cs2)cc1` the binding response (% of control) was inconclusive: -57.4%.
`CC(Oc1cc(F)ccc1[N+](=O)[O-])C(=O)N(C)CC(=O)Nc1ccccc1C(F)(F)F` (configuration not stated) was tested, and the binding response (% of control) was inactive: 105%.
In the case of `COc1ccc2c(-c3ccccc3)cc(SCC(N)=O)nc2c1`, the binding response (% of control) is reported as inconclusive: 226%.
For `CCOC(=O)c1ccc(NC(=S)NCCc2ccc(OC)c(OC)c2)cc1`, the binding response (% of control) was inconclusive: 109%.
`CC(=O)N(C)c1cccc([N+](=O)[O-])c1` was tested, and the binding response (% of control) was inconclusive: 117%.
With `Cc1ccc(Cl)cc1NC(=O)COC(=O)CC1CC2CCC1C2` (configuration not stated) the binding response (% of control) was inactive: 105%.
`O=C(CCCCn1c(=O)c2ccccc2n(Cc2ccccc2)c1=O)NC1CCN(Cc2ccccc2)CC1` was tested, and the binding response (% of control) was inactive: 101%.
With `COc1cc(NC(=O)Cc2ccc(F)cc2)cc(OC)c1OC` the binding response (% of control) was inactive: 94%.
In the case of `CN(C)Cc1cccc([N+](=O)[O-])c1O`, the binding response (% of control) is reported as inconclusive: 62.1%.
In the case of `C[C@H](NC(=O)c1nc[nH]c1C(=O)N[C@@H](Cc1ccccc1)C(=O)OC(C)(C)C)C(=O)OC(C)(C)C`, the binding response (% of control) is reported as inconclusive: 99.1%.
With `O=C(CC1C(=O)NCCN1Cc1ccc(Cl)c(F)c1)NCCc1cccnc1` (configuration not stated) the binding response (% of control) was inconclusive: 148%.
In the case of `CC(C)N(C(=O)Cn1cnc2cc([N+](=O)[O-])ccc2c1=O)C(C)C`, the binding response (% of control) is reported as inconclusive: 99.4%.
`CC1(C)C/C(=N\O)C(C(O)c2cccc([N+](=O)[O-])c2)C(C)(C)N1` (configuration not stated) was tested, and the binding response (% of control) was inconclusive: 179%.
`CC(C)Oc1ccc(CCNC(=O)CC2C(=O)NCCN2C)cc1` (configuration not stated) was tested, and the binding response (% of control) was inconclusive: 111%.
In the case of `COc1cc(CC(=O)O)ccc1OCc1ccccc1`, the binding response (% of control) is reported as inconclusive: 72.7%.
In the case of `N/C(=N\OC(=O)c1cc([N+](=O)[O-])ccc1Cl)c1ccccn1`, the binding response (% of control) is reported as inconclusive: 81%.
